This note sets out measurements from publication PMC10284794.

No constants are given. Whether binding was seen depends on the method and setting. In cells and extracts the contact can be indirect. A yes stands for co-enrichment or nearness to the bait. Other partners may have been found.

First the molecules themselves.
T1: RNF128, RING finger protein 128 (mouse (endogenous in lung tissue)) (UniProt Q9D304)
T1 sequence: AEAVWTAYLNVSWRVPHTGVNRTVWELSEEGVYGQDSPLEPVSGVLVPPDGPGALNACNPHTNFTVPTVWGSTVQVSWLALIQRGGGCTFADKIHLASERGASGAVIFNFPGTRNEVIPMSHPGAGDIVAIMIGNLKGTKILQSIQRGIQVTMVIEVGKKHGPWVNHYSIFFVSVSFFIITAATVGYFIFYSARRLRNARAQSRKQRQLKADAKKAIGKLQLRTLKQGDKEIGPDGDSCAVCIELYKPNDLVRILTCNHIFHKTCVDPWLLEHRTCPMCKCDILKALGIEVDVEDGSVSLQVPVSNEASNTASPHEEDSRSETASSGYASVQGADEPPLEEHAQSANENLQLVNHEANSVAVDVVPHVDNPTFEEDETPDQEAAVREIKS

B1: Non-POU domain-containing octamer-binding protein (protein, UniProt Q99K48 1-473)
chain: MQSNKAFNLEKQNHTPRKHHQHHHQQHHQQQQQQQQQQPPPPIPANGQQASSQNEGLTIDLKNFRKPGEKTFTQRSRLFVGNLPPDITEEEMRKLFEKYGKAGEVFIHKDKGFGFIRLETRTLAEIAKVELDNMPLRGKQLRVRFACHSASLTVRNLPQYVSNELLEEAFSVFGQVERAVVIVDDRGRPSGKGIVEFSGKPAARKALDRCSEGSFLLTTFPRPVTVEPMDQLDDEEGLPEKLVIKNQQFHKEREQPPRFAQPGSFEYEYAMRWKALIEMEKQQQDQVDRNIKEAREKLEMEMEAARHEHQVMLMRQDLMRRQEELRRMEELHNQEVQKRKQLELRQEEERRRREEEMRRQQEEMMRRQQEGFKGTFPDAREQEIRMGQMAMGGAMGINNRGAMPPAPVPPGTPAPPGPATMMPDGTLGLTPPTTERFGQAATMEGIGAIGGTPPAFNRPAPGAEFAPNKRRRY
B2: Glycogen phosphorylase, liver form (protein, UniProt Q9ET01 1-850)
chain: MAKPLTDQEKRRQISIRGIVGVENVAELKKGFNRHLHFTLVKDRNVATPRDYYFALAHTVRDHLVGRWIRTQQHYYDKCPKRVYYLSLEFYMGRTLQNTMINLGLQNACDEAIYQLGLDMEELEEIEEDAGLGNGGLGRLAACFLDSMATLGLAAYGYGIRYEYGIFNQKIREGWQVEEADDWLRHGNPWEKARPEFMLPVHFYGRVEHTQTGTKWVDTQVVLALPYDTPVPGYMNNTVNTMRLWSARAPNDFNLQDFNVGDYIQAVLDRNLAENISRVLYPNDNFFEGKELRLKQEYFVVAATLQDVIRRFKASKFGSKDGMGTVFDAFPDQVAIQLNDTHPALAIPELMRIFVDIEKLPWAKAWEITKKTFAYTNHTVLPEALERWPVELVEKLLPRHLEIIYEINQKHLDRIVALFPKDISRMRRMSLIEEEGGKRINMAHLCIVGCHAVNGVAKIHSDIVKTQVFKDFSELEPDKFQNKTNGITPRRWLLLCNPGLADLIAEKIGEDYVKDLSQLTKLHSFVSDDIFLREIAKVKQENKLKFSQFLEKEYKVKINPSSMFDVHVKRIHEYKRQLLNCLHVITMYNRIKKDPKKFFVPRTVIIGGKAAPGYHMAKMIIKLITSVAEVVNNDPMVGSKLKVIFLENYRVSLAEKVIPATDLSEQISTAGTEASGTGNMKFMLNGALTIGTMDGANVEMAEEAGEENLFIFGMRVDDVAALDKKGYEAKEYYEALPELKLVIDQIDNGFFSPNQPDLFKDIINMLFYHDRFKVFADYEAYVKCQEKVSQLYMNQKAWNTMVLKNIAASGKFSSDRTIKEYAKDIWNMEPSDLKISLSNESSNGVSANGK
B3: ADP/ATP translocase 1 (protein, UniProt P48962 1-298)
chain: MGDQALSFLKDFLAGGIAAAVSKTAVAPIERVKLLLQVQHASKQISAEKQYKGIIDCVVRIPKEQGFLSFWRGNLANVIRYFPTQALNFAFKDKYKQIFLGGVDRHKQFWRYFAGNLASGGAAGATSLCFVYPLDFARTRLAADVGKGSSQREFNGLGDCLTKIFKSDGLKGLYQGFSVSVQGIIIYRAAYFGVYDTAKGMLPDPKNVHIIVSWMIAQSVTAVAGLVSYPFDTVRRRMMMQSGRKGADIMYTGTLDCWRKIAKDEGANAFFKGAWSNVLRGMGGAFVLVLYDEIKKYV

This test addresses T1, RNF128, RING finger protein 128 (mouse (endogenous in lung tissue)). Put plainly: affinity purification with mass spectrometry; whole lung tissue lysates from WT and WT-LPS mice immunoprecipitated using the RNF128 antibody; trypsin digest, LC-MS/MS; hits at least 2-fold more abundant in WT-LPS than in WT.
On to B1, for which the binding result is recorded as “binds”.

As for B2, the binding entry is on record as “binds”.

For B3, the binding result is “binds”.
